Laboratory results taken from patent US20220339127A1, “DRUGGABLE TARGET TO TREAT RETINAL DEGENERATION” (The United States of America,as represented by the …, priority 2019, published 2022).
Entries after “also recorded” stand apart in the source; their conditions may differ.

Columns and labels:
[1] = tested on: iRPE cells; assay: Proteotoxic high throughput screen (LOPAC) and follow up screen: survival of A23187 treated iRPE; assay type: cell-based, human; settings: seven-point dose curve; A23187 2.5, 5, 10 μM; two iRPE samples
Method: 10 μM concentration of A23187 was selected for the drug screening, because it provided a bigger margin for cell death rescue. […] Drug treatment along with the stressor, 10 μM A23187 were added on to iRPE cells matured in 384-well plates and cell death was scored 48 hours later by ATP release using the CellTitrGlo assay.
To distinguish false positives from the real signal, a follow up screen on all of the 45 drugs using iRPE derived from two different iPSC lines was performed. The follow up screen was performed at three different A23187 concentrations (2.5, 5, 10 μM) and with seven different concentrations of drugs ranging from 10 nM-1 mM (FIG. 13D-F). […] Overall, the HTS screen provided two drugs for testing in the in vitro AMD model.

[2] = tested on: ATG5; assay: ATG5 immunostaining in CC-HS treated iRPE; assay type: cell-based, human; settings: co-treatment with CC-HS

Compound: Nc1nc2ccc(OC(F)(F)F)cc2s1 [riluzole]
- cytoprotective activity in follow up screen [1]: reproducible cell survival; also recorded: linear response the seven-point dose curve and reproducibility between two different iRPE samples
- reduced expression of autophagy protein, ATG5 [2]: does not lead to
